According to paper PMC6482291, “Anticonvulsant Activity of Pterostilbene in Zebrafish and Mouse Acute Seizure Tests” (Neurochemical Research, 2019):

Test system: mice
Assay: Spontaneous locomotor activity
Assay type: in vivo
Details: for Activity counts: 30 min before test, mean ± SEM

Compound	change of locomotor activity vs control (IMI 20 mg/kg ip)	Activity counts (IMI 20 mg/kg ip, 6 min)	Activity counts (PTE 50 mg/kg ip, 6 min)	Activity counts (PTE 100 mg/kg ip, 6 min)	Activity counts (PTE 200 mg/kg ip, 5 min)	Activity counts (PTE 200 mg/kg ip, 6 min)	Activity counts (PTE 400 mg/kg ip, 5 min)	Activity counts (PTE 600 mg/kg ip, 5 min)	Activity counts (PTE 800 mg/kg ip, 5 min)	change of locomotor activity vs control (PTE 50 to 200 mg/kg ip)	change of locomotor activity vs control (PTE high doses, 200–800 mg/kg ip)
CN(C)CCCN1c2ccccc2CCc2ccccc21 [IMI, imipramine, reference compound]	did not significantly change	1217 ± 114									
COc1cc(/C=C/c2ccc(O)cc2)cc(OC)c1 [PTE, trans-3,5-dimethoxy-4′-hydroxy-trans-stilbene]			857 ± 132	747 ± 96	880 ± 134	874 ± 87	1603 ± 161	806 ± 116	1613 ± 181	did not significantly change	not statistically significant changes
